In experiment [1] the target is GST-SDE2, recombinant (human) (UniProt Q6IQ49). The experiment can be described thus: pull-down; purified GST-SDE2 (or GST) on glutathione sepharose beads incubated with 293T cell lysates, 4 h at 4 °C; only the target purified.
In experiment [2] the target is Flag-TIM Δ882-1208 (ΔC1) (human) (UniProt Q9UNS1). The experiment can be described thus: co-IP; anti-Flag co-IP (anti-FLAG M2 affinity gel) from transfected HEK293T lysates, NETN150 buffer, 4 h at 4 °C.
In experiment [3] the target is Flag-TIM (pcDNA4-Flag-TIMELESS-myc-6xHis) (human) (UniProt Q9UNS1). Described as above.
Experiment [4] addresses GST-SDE2, recombinant (human) (UniProt Q6IQ49). The experiment in a line: pull-down; purified GST-SDE2 (or GST) on glutathione sepharose beads incubated with in vitro translated (IVTT) products, 4 h at 4 °C; only the target purified.
Experiment [5] has as its target SDE2, endogenous (human (endogenous in U2OS and HEK293T)) (UniProt Q6IQ49). The experiment in a line: co-IP; endogenous proteins in U2OS cells, IP with an SDE2 antibody (vs. rabbit IgG control).

Protein sequences, listed by entry. Tags and fused reporters are not part of them. Lines headed by an entry give the natural chain unless they say otherwise; changes in a name come on top.
UniProt Q6IQ49: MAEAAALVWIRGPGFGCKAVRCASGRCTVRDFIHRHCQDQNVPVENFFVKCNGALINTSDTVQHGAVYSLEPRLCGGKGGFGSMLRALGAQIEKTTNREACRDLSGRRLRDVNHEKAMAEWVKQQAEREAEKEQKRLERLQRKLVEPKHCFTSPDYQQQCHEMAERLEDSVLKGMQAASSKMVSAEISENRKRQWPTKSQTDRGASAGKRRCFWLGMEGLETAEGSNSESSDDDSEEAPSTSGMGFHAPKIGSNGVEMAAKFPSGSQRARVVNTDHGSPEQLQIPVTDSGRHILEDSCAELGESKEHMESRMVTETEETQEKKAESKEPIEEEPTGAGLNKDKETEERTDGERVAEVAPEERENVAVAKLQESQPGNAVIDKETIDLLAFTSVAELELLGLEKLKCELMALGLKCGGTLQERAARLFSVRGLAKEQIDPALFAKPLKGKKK
UniProt Q9UNS1: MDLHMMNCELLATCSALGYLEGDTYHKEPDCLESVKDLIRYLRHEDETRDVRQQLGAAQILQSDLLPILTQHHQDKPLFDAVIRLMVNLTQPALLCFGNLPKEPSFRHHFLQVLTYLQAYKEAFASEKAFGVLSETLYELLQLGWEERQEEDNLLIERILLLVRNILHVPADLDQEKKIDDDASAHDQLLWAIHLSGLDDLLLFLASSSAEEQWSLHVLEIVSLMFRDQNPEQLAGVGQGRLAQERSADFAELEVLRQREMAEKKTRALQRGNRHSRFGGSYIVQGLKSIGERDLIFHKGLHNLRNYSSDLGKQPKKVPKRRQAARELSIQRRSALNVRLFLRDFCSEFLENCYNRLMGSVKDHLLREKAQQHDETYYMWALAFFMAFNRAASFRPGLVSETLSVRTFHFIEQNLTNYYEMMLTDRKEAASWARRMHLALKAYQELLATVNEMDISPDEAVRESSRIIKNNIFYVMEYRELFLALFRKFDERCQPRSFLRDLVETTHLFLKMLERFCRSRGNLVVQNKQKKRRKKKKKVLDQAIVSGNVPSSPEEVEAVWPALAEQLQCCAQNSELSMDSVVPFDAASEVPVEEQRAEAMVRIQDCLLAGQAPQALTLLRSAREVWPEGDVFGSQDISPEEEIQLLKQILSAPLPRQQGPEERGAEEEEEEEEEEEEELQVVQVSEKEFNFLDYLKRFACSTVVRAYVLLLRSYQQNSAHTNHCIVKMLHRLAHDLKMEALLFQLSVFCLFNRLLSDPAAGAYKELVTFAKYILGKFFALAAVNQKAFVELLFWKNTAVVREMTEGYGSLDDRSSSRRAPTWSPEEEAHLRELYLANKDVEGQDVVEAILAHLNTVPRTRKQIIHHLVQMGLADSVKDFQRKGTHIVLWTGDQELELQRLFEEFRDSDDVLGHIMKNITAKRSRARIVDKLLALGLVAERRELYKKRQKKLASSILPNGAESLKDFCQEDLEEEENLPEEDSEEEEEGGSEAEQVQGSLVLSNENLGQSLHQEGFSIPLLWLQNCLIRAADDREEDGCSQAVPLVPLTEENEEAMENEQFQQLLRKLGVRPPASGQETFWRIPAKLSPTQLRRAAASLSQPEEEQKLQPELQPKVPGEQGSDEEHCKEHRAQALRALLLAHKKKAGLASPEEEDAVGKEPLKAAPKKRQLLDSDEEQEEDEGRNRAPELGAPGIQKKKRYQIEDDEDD

These are yes or no findings as the source states them, for the method shown. Binding seen in cells or lysates may run through a third protein. For some assays here: Binding calls can cover weak binding; strength is not graded here.

With “Flag-TIM (pcDNA4-Flag-TIMELESS-myc-6xHis) (from UniProt Q9UNS1 1-1208)”, in experiment [1], the binding result is given as “binds”.
SDE2, endogenous (from UniProt Q6IQ49): the binding entry in experiment [2] is given as “no binding”; in experiment [3], “binds”.
Turning to “TIM C-terminus (Ct; aa882-1208)-myc, expressed in 293T cells (from UniProt Q9UNS1 882-1208) (domain or fragment)”, the binding result in experiment [1] is “binds”.
Take “TIM C-terminus, in vitro translated (from UniProt Q9UNS1 882-1208) (domain or fragment)”: in experiment [4], the binding result is “binds”.
Same read-out and setting: the same measure for “TIM-myc WT, in vitro transcribed and translated (IVTT) (from UniProt Q9UNS1 1-1208)”: “binds”; for “TIM-myc ΔC1 mutant, in vitro transcribed and translated (IVTT) (from UniProt Q9UNS1 1-881) (domain or fragment)”: “no binding”.
Turning to “TIMELESS (TIM), endogenous (from UniProt Q9UNS1 1-1208)”, the binding result in experiment [5] was “binds”.

The values are drawn from article PMC7603486.
